Laboratory results from ChEMBL document CHEMBL5154776, “Discovery of Potent and Orally Bioavailable Platelet-Derived Growth Factor Receptor (PDGFR) Inhibitors for the Treatment of Osteosarcoma” (J Med Chem, 2022).
pIC50: −log10 of the molar value.

Tests used:
U2OS = assay: Antiproliferative activity against human U2OS cells assessed as reduction in cell viability incubated for 48 hrs by MTT assay
MG-63 = assay: Antiproliferative activity against human MG-63 cells assessed as reduction in cell viability incubated for 48 hrs by MTT assay; conditions: MG-63, 48 h
SAOS-2 = assay: Antiproliferative activity against human SAOS-2 cells assessed as reduction in cell viability incubated for 48 hrs by MTT assay; conditions: SAOS-2, 48 h

With `Cc1ccc(NC(=O)c2ccc(CN3CCN(C)CC3)cc2)cc1Nc1nccc(-c2cccnc2)n1` [IMATINIB] the pIC50 (U2OS) was 4.57, the pIC50 (MG-63) was 4.50 and the pIC50 (SAOS-2) was 4.82.
